The values that follow come from PMC8384837.

Common to all, as to conditions: yeast three-hybrid, YBZ-1, SC-Leu-His + 0.5 mM 3-AT, 4 days
In experiment [1] the target is T1, PUM1 PUF domain R1-CCK S863C + R864C + Q867K (Homo sapiens) (UniProt Q14671).
T1 sequence: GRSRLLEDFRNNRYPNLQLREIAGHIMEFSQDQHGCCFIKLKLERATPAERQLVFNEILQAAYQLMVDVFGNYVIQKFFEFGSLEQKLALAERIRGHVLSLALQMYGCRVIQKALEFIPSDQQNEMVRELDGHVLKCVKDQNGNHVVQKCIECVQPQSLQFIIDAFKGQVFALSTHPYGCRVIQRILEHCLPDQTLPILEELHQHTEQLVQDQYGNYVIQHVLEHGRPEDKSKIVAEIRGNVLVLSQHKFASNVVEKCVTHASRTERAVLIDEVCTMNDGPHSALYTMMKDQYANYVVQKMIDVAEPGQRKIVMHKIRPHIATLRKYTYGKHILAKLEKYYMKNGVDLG

The target in experiment [2] is T2, PUM1 PUF domain R1-KFR S863K + R864F + Q867R (Homo sapiens) (UniProt Q14671).
T2 sequence: T1 sequence with C36K, C37F, K40R

Experiment [3] deals with T3, PUM1 PUF domain R1-NIS S863N + R864I + Q867S (Homo sapiens) (UniProt Q14671).
T3 sequence: T1 sequence with C36N, C37I, K40S

The target in experiment [4] is T4, PUM1 PUF domain R1-QLD S863Q + R864L + Q867D (UniProt Q14671).
T4 sequence: T1 sequence with C36Q, C37L, K40D

The target in experiment [5] is T5, PUM1 PUF domain R1-TFE S863T + R864F + Q867E (UniProt Q14671).
T5 sequence: T1 sequence with C36T, C37F, K40E

In experiment [6] the target is T6, PUM1 PUF domain R1-TGE S863T + R864G + Q867E (UniProt Q14671).
T6 sequence: T1 sequence with C36T, C37G, K40E

Experiment [7] deals with T7, PUM1 PUF domain R1-TVE S863T + R864V + Q867E (Homo sapiens) (UniProt Q14671).
T7 sequence: T1 sequence with C36T, C37V, K40E

Experiment [8] has as its target T8, PUM1 PUF domain R1-VTW S863V + R864T + Q867W (UniProt Q14671).
T8 sequence: T1 sequence with C36V, C37T, K40W

Experiment [9] has as its target T9, PUM1 PUF domain R6-AWR N1043A + Y1044W + Q1047R (UniProt Q14671).
T9 sequence: T1 sequence with C36S, C37R, K40Q, N216A, Y217W, Q220R

Experiment [10] concerns the target T10, PUM1 PUF domain R6-CFK N1043C + Y1044F + Q1047K (UniProt Q14671).
T10 sequence: T1 sequence with C36S, C37R, K40Q, N216C, Y217F, Q220K

In experiment [11] the target is T11, PUM1 PUF domain R6-CFR N1043C + Y1044F + Q1047R (UniProt Q14671).
T11 sequence: T1 sequence with C36S, C37R, K40Q, N216C, Y217F, Q220R

For experiment [12], the target named is T12, PUM1 PUF domain R6-CFY N1043C + Y1044F + Q1047Y (UniProt Q14671).
T12 sequence: T1 sequence with C36S, C37R, K40Q, N216C, Y217F, Q220Y

The target in experiment [13] is T13, PUM1 PUF domain R6-CHR N1043C + Y1044H + Q1047R (UniProt Q14671).
T13 sequence: T1 sequence with C36S, C37R, K40Q, N216C, Y217H, Q220R

Experiment [14] has as its target T14, PUM1 PUF domain R6-GFQ N1043G + Y1044F (UniProt Q14671).
T14 sequence: T1 sequence with C36S, C37R, K40Q, N216G, Y217F

Experiment [15] concerns the target T15, PUM1 PUF domain R6-GLR N1043G + Y1044L + Q1047R (UniProt Q14671).
T15 sequence: T1 sequence with C36S, C37R, K40Q, N216G, Y217L, Q220R

Experiment [16] addresses T16, PUM1 PUF domain R6-HHR N1043H + Y1044H + Q1047R (UniProt Q14671).
T16 sequence: T1 sequence with C36S, C37R, K40Q, N216H, Y217H, Q220R

Experiment [17] has as its target T17, PUM1 PUF domain R6-LWR N1043L + Y1044W + Q1047R (UniProt Q14671).
T17 sequence: T1 sequence with C36S, C37R, K40Q, N216L, Y217W, Q220R

Experiment [18] has as its target T18, PUM1 PUF domain R6-RYG N1043R + Q1047G (UniProt Q14671).
T18 sequence: T1 sequence with C36S, C37R, K40Q, N216R, Q220G

Experiment [19] addresses T19, PUM1 PUF domain R6-TFG N1043T + Y1044F + Q1047G (UniProt Q14671).
T19 sequence: T1 sequence with C36S, C37R, K40Q, N216T, Y217F, Q220G

For experiment [20], the target named is T20, PUM1 PUF domain R6-VWR N1043V + Y1044W + Q1047R (UniProt Q14671).
T20 sequence: T1 sequence with C36S, C37R, K40Q, N216V, Y217W, Q220R

Residue numbers refer to the chain shown, from its start. This is one part of the list. For some assays here: At the low end of the ranking, values are background and their order means little.

As to “GGCUAGAACUAGUGGAUCCCCCGGCGCCCGGCGGCUCGAGCCCGGGUAAGUGUAAAUCGUCUGCAUGCCGCCGGGCGCCAUGCCUGCAGGUCGACUCUAGAAAACAUG”, the binding signal (log2 enrichment (interaction score)) in [1] is -0.26; in experiment [2], -1.94; in [3], -1.12; in [4], below -7.56; in [5] it was -3.34; in experiment [6], below -9.21. Besides, the figures for the binding signal (log2 enrichment (interaction score)) in experiment [7] and in experiment [8] were -1.16 and below -7.47, respectively.

As to “GGCUAGAACUAGUGGAUCCCCCGGCGCCCGGCGGCUCGAGCCCGGGUAAGUGGAAAUAGUCUGCAUGCCGCCGGGCGCCAUGCCUGCAGGUCGACUCUAGAAAACAUG”, the binding signal (log2 enrichment (interaction score)) in experiment [9] was below -9.9; in [10], below -8.42; in [11], below -8.12; in experiment [12], below -9.09; in experiment [13] it was below -8.76; in experiment [14], -7.55. Further, the binding signal (log2 enrichment (interaction score)) in experiment [15] is -9.47; in experiment [16], -7.22; in [17] it was -8.22; in experiment [18], -6.62; in experiment [19], -6.91; in [20], -6.31.
